Assay results as given in PMC12585102.
No constants are given. Whether binding was seen depends on the method and setting. Binding seen in cells or lysates may run through a third protein. Where a sequence is shown, tags or fusion partners need not be part of it.

Biological target: Zinc finger NFX1-type containing 1 of Epinephelus coioides, HA-tagged (EcZNFX1-HA) (Epinephelus coioides)
Test: co-IP; HEK-293T cells co-transfected, lysed 36 h after transfection; supernatant incubated with anti-HA magnetic beads 1-2 h, washed five times; Western blot

B1: EcMAVS-GFP (mitochondrial antiviral signalling protein of Epinephelus coioides, GFP-tagged) (protein, UniProt A0A2D1AFT4 1-563)
chain: MSFVNDRLYNEFVRRKMSIFVHKVDVGEIIYHLPCLTAHDREHIEAKRQNRGNREGVMELLDCLKRRENWPEQFIEALDACEQWTLAAEMREKYNALRGIKRAAVAPPAEASAPPEPAAQASPPVQPQAPQSSAAQVPEAVSPPEPVPEPPQSTQAEVAPPPSTPPPSPAAPHTQPATPPPPQRETNSHQEPVENSESDIQDVSADDVVIPDQVSAGNREVSISSVDAPQPSRPVEQCETHTASPDPLQTTTTSTEVSPPQSPSASQMNSDVTNGSSFLTLTPERPPVQDTSPPGDFKAVLQPEETSEPPAAQVVESSPQTEAAATTSPPLGAAGMGAPLCGDSSVCLSKPGPLISVHPLNHSSPTIPAQSLPVPPYSGNTERLEISSSVSDAVTTAQSSTCSYVSSTTVTTASAPPCQETGIALNHNEPEENHYESPRNSLGMQSVQEHVGHVSEEPSILNLDGQNLTPQVPAVDSEAAKEMTFAPPLSNTAADTVRSVNTSCSENHHPCEPTPTDLSAEQKTLQGSEDKMACRTLTPNTKYILIAAGVGVCALLIAWRFKH
B1 was tested, and the binding was “no binding”.
